# Laboratory results: the supplement of paper PMC10849652
# Chains of the proteins cited; added tags and fusions are not shown. Lines headed by an entry give the natural chain unless they say otherwise; changes in a name come on top.
# UniProt Q6P1L5: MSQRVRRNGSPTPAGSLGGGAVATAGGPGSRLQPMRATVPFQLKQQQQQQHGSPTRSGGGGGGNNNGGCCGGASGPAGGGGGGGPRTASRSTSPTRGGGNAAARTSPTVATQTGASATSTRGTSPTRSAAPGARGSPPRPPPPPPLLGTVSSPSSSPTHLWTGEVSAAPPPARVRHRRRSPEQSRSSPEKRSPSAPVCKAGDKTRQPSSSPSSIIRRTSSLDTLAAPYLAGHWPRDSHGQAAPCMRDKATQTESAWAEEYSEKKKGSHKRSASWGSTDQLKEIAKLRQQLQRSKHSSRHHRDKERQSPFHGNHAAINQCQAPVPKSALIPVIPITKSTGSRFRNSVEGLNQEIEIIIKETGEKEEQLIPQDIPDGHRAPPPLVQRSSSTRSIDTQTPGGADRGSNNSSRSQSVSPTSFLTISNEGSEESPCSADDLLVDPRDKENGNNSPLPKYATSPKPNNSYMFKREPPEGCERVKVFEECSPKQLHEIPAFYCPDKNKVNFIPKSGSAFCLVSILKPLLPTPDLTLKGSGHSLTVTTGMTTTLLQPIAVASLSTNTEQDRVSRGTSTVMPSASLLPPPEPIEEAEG
# UniProt P05413, whole entry, looked up: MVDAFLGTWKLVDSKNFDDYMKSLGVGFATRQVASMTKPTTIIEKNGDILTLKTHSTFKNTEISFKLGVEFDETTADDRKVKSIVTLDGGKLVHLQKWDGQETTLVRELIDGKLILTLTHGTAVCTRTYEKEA
# UniProt O60447: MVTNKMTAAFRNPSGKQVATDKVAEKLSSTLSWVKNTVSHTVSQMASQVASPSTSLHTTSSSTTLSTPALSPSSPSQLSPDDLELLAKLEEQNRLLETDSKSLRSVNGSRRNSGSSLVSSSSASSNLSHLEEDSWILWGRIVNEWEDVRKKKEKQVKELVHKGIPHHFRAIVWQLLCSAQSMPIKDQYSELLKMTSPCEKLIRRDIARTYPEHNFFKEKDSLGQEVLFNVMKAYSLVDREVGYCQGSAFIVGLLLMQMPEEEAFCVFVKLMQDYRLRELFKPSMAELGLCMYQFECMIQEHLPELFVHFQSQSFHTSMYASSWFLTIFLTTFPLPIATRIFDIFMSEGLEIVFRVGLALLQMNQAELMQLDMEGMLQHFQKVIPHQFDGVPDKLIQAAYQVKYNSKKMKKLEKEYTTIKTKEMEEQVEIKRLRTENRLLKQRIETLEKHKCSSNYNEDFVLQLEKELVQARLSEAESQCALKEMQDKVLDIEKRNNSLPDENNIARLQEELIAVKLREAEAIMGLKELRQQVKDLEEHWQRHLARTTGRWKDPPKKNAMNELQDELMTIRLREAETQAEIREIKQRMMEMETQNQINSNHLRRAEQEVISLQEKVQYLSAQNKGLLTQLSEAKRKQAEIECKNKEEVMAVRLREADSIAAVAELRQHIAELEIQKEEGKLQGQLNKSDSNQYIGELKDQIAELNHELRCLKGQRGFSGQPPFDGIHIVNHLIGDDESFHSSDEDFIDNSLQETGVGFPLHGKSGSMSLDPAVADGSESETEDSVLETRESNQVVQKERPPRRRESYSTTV
# UniProt Q5VUB5: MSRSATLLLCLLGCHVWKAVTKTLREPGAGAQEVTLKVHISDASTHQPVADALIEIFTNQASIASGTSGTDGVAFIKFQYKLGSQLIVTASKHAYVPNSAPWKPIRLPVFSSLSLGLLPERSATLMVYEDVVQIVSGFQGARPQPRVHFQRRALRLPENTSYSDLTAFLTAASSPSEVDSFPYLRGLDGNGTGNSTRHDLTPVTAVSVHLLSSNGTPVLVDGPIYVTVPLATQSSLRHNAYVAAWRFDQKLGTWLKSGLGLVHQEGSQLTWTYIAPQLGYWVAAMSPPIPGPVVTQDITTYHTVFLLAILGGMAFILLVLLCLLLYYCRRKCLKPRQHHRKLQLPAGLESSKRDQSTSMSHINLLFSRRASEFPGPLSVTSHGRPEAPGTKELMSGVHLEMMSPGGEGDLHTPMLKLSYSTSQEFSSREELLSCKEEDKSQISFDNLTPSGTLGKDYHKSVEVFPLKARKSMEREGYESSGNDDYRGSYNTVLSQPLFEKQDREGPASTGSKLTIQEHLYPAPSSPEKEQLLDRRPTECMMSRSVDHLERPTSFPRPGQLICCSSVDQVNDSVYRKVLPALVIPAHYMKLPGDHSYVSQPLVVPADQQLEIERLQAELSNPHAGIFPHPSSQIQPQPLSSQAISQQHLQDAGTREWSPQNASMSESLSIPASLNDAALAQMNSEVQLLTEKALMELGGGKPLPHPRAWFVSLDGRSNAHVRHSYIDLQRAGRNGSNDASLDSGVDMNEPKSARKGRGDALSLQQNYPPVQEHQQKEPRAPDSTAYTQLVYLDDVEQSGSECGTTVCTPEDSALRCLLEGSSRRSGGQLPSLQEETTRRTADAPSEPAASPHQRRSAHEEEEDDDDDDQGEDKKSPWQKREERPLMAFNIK
# UniProt Q8IV48: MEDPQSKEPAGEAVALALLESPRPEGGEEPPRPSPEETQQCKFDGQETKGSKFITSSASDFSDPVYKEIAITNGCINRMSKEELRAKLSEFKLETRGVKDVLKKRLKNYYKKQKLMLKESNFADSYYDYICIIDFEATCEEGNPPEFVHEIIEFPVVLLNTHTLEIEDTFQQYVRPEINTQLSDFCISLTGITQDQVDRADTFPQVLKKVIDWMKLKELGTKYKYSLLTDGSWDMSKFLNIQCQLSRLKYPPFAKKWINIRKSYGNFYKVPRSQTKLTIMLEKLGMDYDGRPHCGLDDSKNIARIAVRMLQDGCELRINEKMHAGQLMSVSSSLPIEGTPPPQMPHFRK
# UniProt Q6NZ36: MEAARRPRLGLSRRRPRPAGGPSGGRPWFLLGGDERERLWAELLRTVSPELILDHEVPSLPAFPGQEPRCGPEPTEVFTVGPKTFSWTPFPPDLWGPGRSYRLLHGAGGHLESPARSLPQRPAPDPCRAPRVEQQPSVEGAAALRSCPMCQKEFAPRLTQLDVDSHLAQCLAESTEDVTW
# UniProt Q8N612: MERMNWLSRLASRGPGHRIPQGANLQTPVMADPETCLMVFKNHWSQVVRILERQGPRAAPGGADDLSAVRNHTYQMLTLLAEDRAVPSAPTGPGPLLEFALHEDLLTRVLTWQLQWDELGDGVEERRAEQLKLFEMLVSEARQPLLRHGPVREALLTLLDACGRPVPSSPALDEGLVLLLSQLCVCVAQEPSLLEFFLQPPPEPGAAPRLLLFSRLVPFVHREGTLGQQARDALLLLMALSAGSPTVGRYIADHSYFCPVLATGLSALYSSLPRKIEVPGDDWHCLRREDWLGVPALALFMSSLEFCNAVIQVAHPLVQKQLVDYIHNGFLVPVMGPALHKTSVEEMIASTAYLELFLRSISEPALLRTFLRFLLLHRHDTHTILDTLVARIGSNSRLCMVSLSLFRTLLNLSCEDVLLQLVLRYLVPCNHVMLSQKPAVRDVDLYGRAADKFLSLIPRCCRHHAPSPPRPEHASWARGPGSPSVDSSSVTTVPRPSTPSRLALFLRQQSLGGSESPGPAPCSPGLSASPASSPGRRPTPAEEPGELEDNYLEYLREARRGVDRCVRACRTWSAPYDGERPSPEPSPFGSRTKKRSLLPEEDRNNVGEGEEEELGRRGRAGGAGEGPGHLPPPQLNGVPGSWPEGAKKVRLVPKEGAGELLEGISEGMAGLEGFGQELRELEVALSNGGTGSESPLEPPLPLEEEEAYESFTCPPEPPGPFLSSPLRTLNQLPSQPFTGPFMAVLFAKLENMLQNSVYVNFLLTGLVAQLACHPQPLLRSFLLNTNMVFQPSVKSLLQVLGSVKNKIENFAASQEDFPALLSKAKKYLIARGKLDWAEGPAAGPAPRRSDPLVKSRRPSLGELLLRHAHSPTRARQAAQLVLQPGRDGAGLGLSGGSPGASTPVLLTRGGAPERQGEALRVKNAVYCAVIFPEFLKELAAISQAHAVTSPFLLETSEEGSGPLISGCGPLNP
# UniProt P00488: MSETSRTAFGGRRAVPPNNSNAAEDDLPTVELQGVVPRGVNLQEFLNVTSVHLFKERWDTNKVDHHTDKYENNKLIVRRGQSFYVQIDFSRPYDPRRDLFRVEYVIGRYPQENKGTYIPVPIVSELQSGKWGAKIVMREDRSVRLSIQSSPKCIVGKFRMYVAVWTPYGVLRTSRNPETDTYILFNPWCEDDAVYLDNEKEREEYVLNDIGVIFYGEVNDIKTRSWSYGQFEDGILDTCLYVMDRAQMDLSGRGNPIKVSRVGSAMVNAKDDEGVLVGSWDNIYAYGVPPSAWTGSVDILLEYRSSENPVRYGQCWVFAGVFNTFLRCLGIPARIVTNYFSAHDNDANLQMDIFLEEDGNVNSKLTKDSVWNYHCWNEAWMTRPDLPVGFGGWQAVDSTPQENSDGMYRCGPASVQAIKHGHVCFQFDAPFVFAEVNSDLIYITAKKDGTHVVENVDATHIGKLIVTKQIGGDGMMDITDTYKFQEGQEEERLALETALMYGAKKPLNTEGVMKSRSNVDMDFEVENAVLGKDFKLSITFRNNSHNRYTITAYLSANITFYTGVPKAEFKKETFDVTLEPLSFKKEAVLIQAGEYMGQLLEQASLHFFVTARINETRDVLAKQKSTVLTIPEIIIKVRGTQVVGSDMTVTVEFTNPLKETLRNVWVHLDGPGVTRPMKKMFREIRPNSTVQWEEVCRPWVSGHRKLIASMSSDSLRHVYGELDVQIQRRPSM
# UniProt Q6P179: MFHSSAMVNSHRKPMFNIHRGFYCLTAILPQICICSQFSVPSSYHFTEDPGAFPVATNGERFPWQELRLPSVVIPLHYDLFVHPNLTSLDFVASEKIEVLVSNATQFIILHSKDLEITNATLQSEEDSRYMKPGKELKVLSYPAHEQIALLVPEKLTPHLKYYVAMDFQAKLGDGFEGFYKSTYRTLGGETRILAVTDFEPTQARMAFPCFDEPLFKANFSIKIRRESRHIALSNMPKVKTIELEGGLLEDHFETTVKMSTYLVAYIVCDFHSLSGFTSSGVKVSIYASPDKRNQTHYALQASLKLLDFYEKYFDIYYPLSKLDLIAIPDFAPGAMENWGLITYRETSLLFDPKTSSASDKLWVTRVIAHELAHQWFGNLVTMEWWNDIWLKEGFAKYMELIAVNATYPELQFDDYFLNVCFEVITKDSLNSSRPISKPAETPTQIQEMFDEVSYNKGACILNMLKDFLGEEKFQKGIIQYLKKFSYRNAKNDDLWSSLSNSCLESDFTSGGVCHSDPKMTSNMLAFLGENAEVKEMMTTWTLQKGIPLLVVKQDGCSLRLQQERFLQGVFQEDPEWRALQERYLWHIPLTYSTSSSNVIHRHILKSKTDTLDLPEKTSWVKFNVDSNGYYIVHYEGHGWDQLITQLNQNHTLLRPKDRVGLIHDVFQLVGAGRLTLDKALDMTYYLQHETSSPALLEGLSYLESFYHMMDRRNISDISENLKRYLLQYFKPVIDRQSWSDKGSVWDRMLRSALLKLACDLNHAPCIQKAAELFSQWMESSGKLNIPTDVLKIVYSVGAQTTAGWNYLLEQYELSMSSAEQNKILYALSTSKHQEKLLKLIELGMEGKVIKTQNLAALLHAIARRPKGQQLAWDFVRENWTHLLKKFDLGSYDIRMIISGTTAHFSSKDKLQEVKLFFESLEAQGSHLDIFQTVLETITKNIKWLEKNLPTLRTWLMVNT
# UniProt P34910: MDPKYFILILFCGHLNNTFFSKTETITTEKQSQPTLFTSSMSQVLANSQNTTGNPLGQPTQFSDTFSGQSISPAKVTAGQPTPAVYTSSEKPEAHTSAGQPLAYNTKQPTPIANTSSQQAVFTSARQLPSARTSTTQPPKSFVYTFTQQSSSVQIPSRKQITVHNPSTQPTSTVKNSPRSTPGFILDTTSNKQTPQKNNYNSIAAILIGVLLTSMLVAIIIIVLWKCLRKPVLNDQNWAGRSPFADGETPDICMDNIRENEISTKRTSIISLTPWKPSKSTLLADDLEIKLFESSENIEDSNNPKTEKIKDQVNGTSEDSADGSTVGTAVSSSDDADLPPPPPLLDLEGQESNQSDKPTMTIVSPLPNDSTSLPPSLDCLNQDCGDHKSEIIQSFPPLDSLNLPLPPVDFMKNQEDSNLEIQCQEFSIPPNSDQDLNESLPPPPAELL
# UniProt O95718: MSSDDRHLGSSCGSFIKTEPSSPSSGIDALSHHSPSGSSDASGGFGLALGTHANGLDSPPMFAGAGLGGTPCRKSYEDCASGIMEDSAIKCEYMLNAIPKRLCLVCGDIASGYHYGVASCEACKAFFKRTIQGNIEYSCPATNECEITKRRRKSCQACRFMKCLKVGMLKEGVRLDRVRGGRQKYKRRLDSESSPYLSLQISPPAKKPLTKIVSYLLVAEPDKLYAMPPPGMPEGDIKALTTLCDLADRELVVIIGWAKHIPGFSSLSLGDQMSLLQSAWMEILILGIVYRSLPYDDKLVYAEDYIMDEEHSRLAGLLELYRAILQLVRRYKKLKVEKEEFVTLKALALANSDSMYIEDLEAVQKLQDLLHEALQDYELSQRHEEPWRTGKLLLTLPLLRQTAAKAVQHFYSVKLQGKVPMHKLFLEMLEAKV
# This is one part of the list.
# Compound: NC(=O)c1cnc(N[C@@H]2CCCC[C@@H]2N)nc1Nc1cccc(-n2nccn2)c1
# Assay: log2 fold change, soluble protein after heating vs DMSO (PISA); higher = thermal stabilisation; K562 cells, 10 uM, 30 min; active = over 0.2 and 3.5 SD of the protein, either way, in both replicates (recomputed)
# Outline: (§1)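 K562 cells at 2×10^6 cells/mL were treated for 30 min with 10 μM compound, and aliquots were heated for 3 min over 48°C-58°C before pooling. Extraction used PBS with 0.5% NP-40 at 4°C, and soluble protein was the supernatant after 21,000xg for 90 min, measured by TMTpro 16plex LC-MS/MS with channel sums equalised. Thermal stability values, relative to control samples and from duplicates, are log2 fold changes.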
row,Target,log2 fold change
1,FAM126B (UniProt Q8IXS8),inactive: -0.106
2,FAM117B (UniProt Q6P1L5),inactive: -0.159
3,FAM120B (UniProt Q96EK7),inactive: -0.434
4,F9 (UniProt P00740),inactive: 0.09
5,FABP3 (UniProt P05413),inactive: 0.308
6,EVI5 isoform 2 (UniProt O60447),inactive: 0.163
7,FAM171A1 (UniProt Q5VUB5),inactive: 0.124
8,ETF1 isoform 2 (UniProt P62495),inactive: -0.202
9,F2R (UniProt P25116),inactive: -0.024

# Compound: NC1(c2ccc(-c3nc4ccn5c(=O)[nH]nc5c4cc3-c3ccccc3)cc2)CCC1
# Assay: as above
# Outline: as §1
row,Target,log2 fold change
1,ERI1 (UniProt Q8IV48),inactive: 0.184
2,EVA1B (UniProt Q9NVM1),inactive: -0.117
3,FAAP20 isoform 2 (UniProt Q6NZ36),inactive: -0.133
4,FAM160B2 (UniProt Q86V87),inactive: 0.138
5,ERMARD (UniProt Q5T6L9),inactive: 0.055
6,FAM114A1 (UniProt Q8IWE2),inactive: -0.172
7,FAM160A2 isoform 2 (UniProt Q8N612),inactive: 0.158
8,F13A1 (UniProt P00488),inactive: -0.018
9,FAM122B isoform 2 (UniProt Q7Z309),inactive: 0.006
10,EPC1 (UniProt Q9H2F5),inactive: 0.408
11,ERAP2 (UniProt Q6P179),inactive: -0.148

# Compound: NCC(=O)Nc1ccc(-n2nc(C(F)(F)F)cc2-c2ccc3c(ccc4ccccc43)c2)cc1
# Assay: as above
# Outline: as §1
row,Target,log2 fold change
1,EVI2B isoform 2 (UniProt P34910),inactive: 0.018
2,FAM117B (UniProt Q6P1L5),inactive: 0.229
3,ERI1 (UniProt Q8IV48),inactive: 0.095
4,FAM174A (UniProt Q8TBP5),inactive: -0.167
5,F9 (UniProt P00740),inactive: 0
6,F13B (UniProt P05160),inactive: -0.004
7,ESRRB isoform 1 (UniProt O95718),inactive: 0.036
8,FAM160A2 isoform 2 (UniProt Q8N612),inactive: -0.26
9,FAM102B (UniProt Q5T8I3),inactive: 0.019
10,EVI5 isoform 2 (UniProt O60447),inactive: -0.089
11,FAM171A1 (UniProt Q5VUB5),inactive: -0.039
12,ETF1 isoform 2 (UniProt P62495),inactive: -0.378
13,FAM107B isoform 2 (UniProt Q9H098),inactive: -0.096
14,F2R (UniProt P25116),inactive: -0.242
15,FADS1 (UniProt F5GYH4),inactive: -0.191
